In paper PMC4997860, “The Heterodimeric ABC Transporter EfrCD Mediates Multidrug Efflux in Enterococcus faecalis” (Antimicrobial Agents and Chemotherapy, 2016):
No constants are given. Whether binding was seen depends on the method and setting. In cells and extracts the contact can be indirect. Binding calls can cover weak binding; strength is not graded here.

Protein sequences, listed by entry. Tags and fused reporters are not part of them. Lines headed by an entry give the natural chain unless they say otherwise; changes in a name come on top.
UniProt Q837A2: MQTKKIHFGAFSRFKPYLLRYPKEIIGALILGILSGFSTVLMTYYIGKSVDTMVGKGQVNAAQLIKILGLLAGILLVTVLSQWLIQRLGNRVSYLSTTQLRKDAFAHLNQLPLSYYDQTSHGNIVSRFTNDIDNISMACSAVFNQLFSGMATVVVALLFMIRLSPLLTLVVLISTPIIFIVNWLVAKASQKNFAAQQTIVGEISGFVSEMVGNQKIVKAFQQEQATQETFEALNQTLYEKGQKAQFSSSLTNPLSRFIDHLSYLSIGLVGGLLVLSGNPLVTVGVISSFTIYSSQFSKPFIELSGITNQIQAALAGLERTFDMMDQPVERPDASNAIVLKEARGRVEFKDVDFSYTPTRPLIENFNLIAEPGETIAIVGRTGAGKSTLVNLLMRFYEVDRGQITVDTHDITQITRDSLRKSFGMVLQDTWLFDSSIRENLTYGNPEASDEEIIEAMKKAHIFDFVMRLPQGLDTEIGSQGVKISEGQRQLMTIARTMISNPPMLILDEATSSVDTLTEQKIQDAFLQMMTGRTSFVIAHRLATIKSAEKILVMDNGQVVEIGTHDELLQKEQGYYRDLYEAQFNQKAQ
UniProt Q82ZX8: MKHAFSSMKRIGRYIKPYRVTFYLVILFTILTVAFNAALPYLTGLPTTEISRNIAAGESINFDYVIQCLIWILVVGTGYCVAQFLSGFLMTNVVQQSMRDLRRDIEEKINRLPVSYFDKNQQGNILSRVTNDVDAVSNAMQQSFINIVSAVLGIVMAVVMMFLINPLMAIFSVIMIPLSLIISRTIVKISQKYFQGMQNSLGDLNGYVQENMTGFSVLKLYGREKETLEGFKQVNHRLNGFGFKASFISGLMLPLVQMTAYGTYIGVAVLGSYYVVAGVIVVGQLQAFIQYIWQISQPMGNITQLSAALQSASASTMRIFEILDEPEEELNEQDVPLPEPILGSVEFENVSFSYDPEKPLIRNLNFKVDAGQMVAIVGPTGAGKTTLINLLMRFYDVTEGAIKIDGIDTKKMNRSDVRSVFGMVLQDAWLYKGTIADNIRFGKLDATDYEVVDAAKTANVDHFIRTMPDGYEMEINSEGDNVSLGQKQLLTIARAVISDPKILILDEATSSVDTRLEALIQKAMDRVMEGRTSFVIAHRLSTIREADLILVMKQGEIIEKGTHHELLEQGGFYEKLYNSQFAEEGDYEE

Assays:
[1] = molecular target: EF0942, first half-transporter of the heterodimeric ABC transporter EF0942-EF0941 (Enterococcus faecalis V583) (UniProt Q837A1); experiment: pull-down; co-purification: both half-transporters co-expressed in L. lactis, membranes solubilised with 1% β-DDM, Ni-NTA via the deca-His tag on the N terminus of the first chain, eluted with 200 mM imidazole pH 7.5, 200 mM NaCl, 10% glycerol, 0.03% β-DDM; SDS-PAGE (EfrC and EfrD bands confirmed by MALDI-TOF)
[2] = molecular target: EfrA (EF2920), first half-transporter of the heterodimeric ABC transporter EfrAB (Enterococcus faecalis V583) (UniProt Q82ZX7); experiment: as above

Substance	binding [1]	binding [2]
EF0941, second half-transporter of the heterodimeric ABC transporter EF0942-EF0941 (from UniProt Q837A2)	binds	–
EfrB (EF2919), second half-transporter of the heterodimeric ABC transporter EfrAB (from UniProt Q82ZX8)	–	binds
